This is an account of results in the supplement of paper PMC7580552.

Where a name gives a salt, the structure may show the parent alone. ± gives the standard deviation of the averaged measurements. The list shows a part of the results. Plates or batches differ in their baseline, so values are only roughly comparable.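 Biofilm, quantified by the absorbance of well-retained crystal violet, is assayed using the K-12 laboratory model grown unshaken in 96-well plates. Candidate specific biofilm inhibitors were drugs that sharply lowered staining yet reduced free-floating growth by less than 70%.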

For this assay, the system named is Escherichia coli W3110. Briefly: biofilm formation (crystal violet staining) relative to untreated control; higher = more biofilm. The note with it: 10 µM; 20-24 h; 30 °C; TB.
In turn, `COc1ccc(CCN2CCC(Nc3nc4ccccc4n3Cc3ccc(F)cc3)CC2)cc1` [Astemizole] returned a biofilm formation of 52%.

In turn, `Fc1ccc(C(OCCN2CCN(CCCc3ccccc3)CC2)c2ccc(F)cc2)cc1` yielded a biofilm formation of 77%.

The compound `CC(C)(C)NCC(O)c1cc(Cl)c(N)c(Cl)c1` (configuration not stated) [Clenbuterol hydrochloride] registered a biofilm formation of 57%.

`CCC1(CC)C(=O)C=CNC1=O` [Pyrithyldione]: the biofilm formation came out at 75%.

`COc1ccc(Cc2nccc3cc(OC)c(OC)cc23)cc1OC` [Papaverine hydrochloride]: the biofilm formation was determined as 60%.

Regarding `CN1[C@@H]2CC[C@H]1C[C@@H](OC1c3ccccc3CCc3ccccc31)C2` [Deptropine citrate], the biofilm formation turned out to be 68%.

In the case of `NCC(O)c1ccc(O)cc1` (racemic) [(+,-)-Octopamine hydrochloride], the biofilm formation is 59%.

As for `C[C@]12CC[C@H](O)C[C@@H]1CC[C@@H]1[C@@H]2CC[C@]2(C)C(=O)CC[C@@H]12` [Epiandrosterone], the biofilm formation turned out to be 108%.

`CCn1cc(C(=O)O)c(=O)c2cc3c(cc21)OCO3` [Oxolinic acid] returned a biofilm formation of 12%.

With `CN(C)C(=O)Oc1cc(OC(=O)N(C)C)cc(C(O)CNC(C)(C)C)c1` (configuration not stated) [Bambuterol hydrochloride], the biofilm formation was 73%.

`CC[C@@]1([C@@H]2O[C@@H]([C@H]3O[C@@](O)(CO)[C@H](C)C[C@@H]3C)C[C@@H]2C)CC[C@H]([C@]2(C)CC[C@]3(C[C@H](O)[C@@H](C)[C@@H]([C@@H](C)[C@@H](OC)[C@H](C)C(=O)O)O3)O2)O1` [Monensin sodium salt] yielded a biofilm formation of 60%.

For `CCN(C)C(=O)Oc1cccc([C@H](C)N(C)C)c1` [Rivastigmine], the biofilm formation was 101%.

Take `CCC1(c2ccc(N)cc2)CCC(=O)NC1=O` (configuration not stated) [Glutethimide, para-amino]: the biofilm formation is 68%.

`C[C@]12CC[C@@H]3c4ccc(OC(=O)N(CCCl)CCCl)cc4CC[C@H]3[C@@H]1CC[C@@H]2O` [Estramustine] registered a biofilm formation of 92%.

Turning to `CC(=O)OCC(=O)[C@H]1CC[C@H]2[C@@H]3CC[C@H]4C[C@H](O)CC[C@]4(C)[C@H]3C(=O)C[C@]12C` [Alfadolone acetate], the biofilm formation came out at 90%.

`NC(=O)CN1CCCC1=O` [Piracetam] registered a biofilm formation of 56%.

Turning to `C=C(C)[C@@H]1[C@H]2OC(=O)[C@@H]1[C@]1(O)C[C@H]3O[C@]34C(=O)O[C@H]2[C@]14C` [Picrotoxinin], the biofilm formation worked out at 78%.

As for `CC(C)c1c(CN(C)C(C)Cc2ccccc2)n(C)n(-c2ccccc2)c1=O` (configuration not stated) [Famprofazone], the biofilm formation was 79%.

Regarding `Cc1cccc(C)c1NC1=NCCCS1` [Xylazine], the biofilm formation was 78%.

`NC(=O)C[S+]([O-])C(c1ccccc1)c1ccccc1` (configuration not stated) [Modafinil]: the biofilm formation is 68%.

Consider `CC(=O)NC1CCSC1=O` (racemic) [N-Acetyl-DL-homocysteine Thiolactone], for which the biofilm formation was found to be 72%.

With `CC(Cc1ccccc1)NCCC(c1ccccc1)c1ccccc1` (configuration not stated) [Prenylamine lactate], the biofilm formation stood at 121%.

`C[C@]12CC[C@H](O)C[C@H]1CC[C@@H]1[C@@H]2C[C@@H](O)[C@]2(C)[C@@H](C3=CC(=O)OC3)CC[C@]12O` [Digoxigenin] had a biofilm formation of 69.5 ± 6.4%.

Compound `Clc1ccc(C(OCCN2CCCCC2)c2ccccc2)cc1` (configuration not stated) [Cloperastine hydrochloride] returned a biofilm formation of 78%.

`CN1CCN(C(=O)OC2c3nccnc3C(=O)N2c2ccc(Cl)cn2)CC1` (configuration not stated) [Zopiclone]: the biofilm formation is 94%.

In the case of `CCC(COC(=O)c1cc(OC)c(OC)c(OC)c1)(c1ccccc1)N(C)C` (configuration not stated) [Trimebutine], the biofilm formation worked out at 80%.

In turn, `NCCc1c[nH]c2ccc(O)cc12` [Serotonin hydrochloride] displayed a biofilm formation of 95%.

Compound `CCN(C(C)=O)c1cccc(-c2ccnc3c(C#N)cnn23)c1` [Zaleplon] yielded a biofilm formation of 85%.

The compound `CCC1(c2cccc(O)c2)CCCCN(C)C1` (configuration not stated) [Meptazinol hydrochloride] returned a biofilm formation of 72%.

In turn, `C[C@@H]1CC[C@H]2[C@@H](C)C(=O)O[C@@H]3O[C@@]4(C)CC[C@@H]1[C@]32OO4` [Artemisinin] yielded a biofilm formation of 66%.

Consider `COc1cc([C@@H]2c3cc4c(cc3[C@H](O)[C@H]3COC(=O)[C@H]23)OCO4)cc(OC)c1OC` [Podophyllotoxin], for which the biofilm formation came to 75%.

In turn, `CC(C)(C)NCC(O)c1ccccc1Cl` (configuration not stated) [Tulobuterol] displayed a biofilm formation of 98%.

`CC(C)C[C@H](CN)CC(=O)O` [Pregabalin]: the biofilm formation turned out to be 65%.

`C[C@]12Cc3c[nH]nc3C[C@@H]1CC[C@@H]1[C@@H]2CC[C@@]2(C)[C@H]1CC[C@]2(C)O` [Stanozolol] registered a biofilm formation of 90%.

`C[N+]12CCC(CC1)C(OC(=O)C(O)(c1ccccc1)c1ccccc1)C2` (configuration not stated) [Clidinium bromide] registered a biofilm formation of 72%.

Compound `CO[C@]12C[C@@H](COC(=O)c3cncc(Br)c3)CN(C)[C@@H]1Cc1cn(C)c3cccc2c13` [Nicergoline] registered a biofilm formation of 68%.

`CC(=O)OCC1=C(C(=O)O)N2C(=O)[C@@H](N)[C@H]2SC1` [Cephalosporanic acid, 7-amino] had a biofilm formation of 100%.
